From patent publication US10358431B1, “Antimicrobials from an epigenetics based fungal metabolite screening program” (University of South Florida, priority 2015, dated 2019)
Some of these results come from one statement about several compounds together.

Each substance was assayed on MRSA (assay: Pure compound activity against MRSA (ESKAPE pathogens)).
Format: cell-based, Staphylococcus aureus

Substance | activity against MRSA at extremely high concentrations [µM]
Phomopsichromin E [Compound 5] | > 500
Phomopsichromin B [Compound 2] | > 500
Phomopsichromin A [Compound 1] | > 500
